Results taken from PubChem BioAssay AID624297 (National Center for Advancing Translational Sciences (NCATS), 2012).
Screen size: about 340,000 compounds; about 6,200 (1.8%) were called active. Inconclusive means that the source gave no clear call. Such entries were picked first, then a sample of the others. Calls come from the whole dose curve; as a rule, active = well fitted activation curve with a large enough effect; inconclusive = small, poorly fitted or top-dose-only effect; inactive = no such curve, though single readings can be large or run the other way. Potencies of inconclusive entries are doubtful fits and often do not repeat.

Test: A quantitative high throughput screen for small molecules that induce DNA re-replication in SW480 colon adenocarcinoma cells. For re-replication activation: % of control where 0% means no effect. Note: nearly all actives have a fitted effect of over 55% in size.
Conditions: Hoechst DNA content imaging, 48 h; re-replication activation: at 46.1 µM (top of the series) unless noted
In short: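 Compounds, transferred as 23 nL by pin tool, were incubated with cells for 48 hr; DNA content per nucleus was then quantified by Hoechst staining and fluorescence plate imaging.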
Potency is the fitted concentration of half-maximal effect.

SMILES | Potency | re-replication activation
CC1=NN(/C(=N\c2nnc(C)s2)Nc2ccc(C(C)(C)C)cc2)[C@H](c2ccc(C)cc2)S1 | inconclusive: 29.1 µM [activator, single point] | –
Clc1cccc(-c2ccc(/C=N/n3cnnc3)o2)c1Cl | – | inactive: -2.84%
O=C(N/N=C/C(Br)=C/c1ccccc1)c1ccccc1F | inconclusive: 16.4 µM [activator, single point] | –
CCCCN(C(=O)c1ccc(N(C)S(=O)(=O)c2ccc(C)cc2)cc1)c1c(N)n(CCCC)c(=O)[nH]c1=O | – | inactive: -339%
O=C(NCCc1ccc(OC(F)F)cc1)C1CC(=O)N(c2ccc3c(c2)OCCO3)C1 (stereo unspecified) | – | inactive: 2.57%
C=CCN(c1ccccc1C(=O)O)S(=O)(=O)/C=C/c1ccccc1 | inconclusive: 1.64 µM [activator, full curve, poor fit] | –
COc1ccc(-n2c(COc3cccc4ccccc34)nnc2SC(C)C(=O)O)cc1 (stereo unspecified) | inconclusive: 18.4 µM [activator, single point] | –
COc1ccc(OC)c(-c2csc(N(Cc3ccco3)C(=O)c3cccs3)n2)c1 | inconclusive: 32.6 µM [activator, partial curve, poor fit] | –
O=C1C(=O)N(CCS(=O)(=O)c2ccccc2)c2ccc(F)cc21 | inconclusive: 25.9 µM [activator, single point] | –
COc1ccc(-c2cc(C)no2)cc1S(=O)(=O)N1CCOc2ccc(C)cc21 | inconclusive: 0.231 µM [activator, full curve, poor fit] | –
COc1cc2c(cc1OC)/C(=C/c1ccc(Cl)cc1)C(=O)OC2 | inconclusive: 20.6 µM [activator, partial curve, poor fit] | –
CC(C)(O)C#Cc1ccc(C(=O)NC2CCCCC2)s1 | – | inactive: -4.19%
c1cncc(-c2nc(-c3ccc4c(c3)OCO4)cs2)c1 | inconclusive: 29.1 µM [activator, single point] | –
CN1CCN(CC(=O)n2c3c(c4ccccc42)CCCC3)CC1 | inconclusive: 29.1 µM [activator, single point] | –
CC(=O)N(C(C)=O)N1C(=O)c2cccc3c(N4CCOCC4)ccc(c23)C1=O | inconclusive: 0.92 µM [activator, full curve, poor fit] | –
Fc1cccc(/C=N/Nc2nncc3ccccc23)c1 | – | inactive: -59.2%
Cc1ccc(C(=O)N2NC(c3ccc(F)cc3)C3C(=O)N(c4ccc(C)cc4)C(=O)C32)cc1 (stereo unspecified) | inconclusive: 20.6 µM [activator, partial curve, poor fit] | –
O=C(COC(=O)/C=C/c1ccc(OC(F)F)cc1)NCc1cccs1 | – | inactive: 2.11%
CCCCC(=O)OC1CCC2C3CCc4cc(O)ccc4C3CCC12C (stereo unspecified) | inconclusive: 0.259 µM [activator, partial curve, poor fit] | –
C[C@@H]1C(c2cccc(Cl)c2)=NN(c2ccccc2)[C@H]1C(=O)N1CCOC1=O | active: 18.4 µM | –
COc1ccc(NC(=O)COC(=O)CNC(=O)COc2ccccc2)cc1OC | – | inactive: 8.88%
CCN(CC)CCCNC(=O)c1oc2ccc(S(=O)(=O)N3CC(C)CC(C)C3)cc2c1C (stereo unspecified) | inconclusive: 25.9 µM [activator, single point] | –
NC(=O)c1c(NC(=O)C2CCCO2)sc2c1CCCC2 (stereo unspecified) | – | inactive: -4.99%
O=C(CNC(=O)c1cccc(F)c1)N/N=C/c1cc(Br)ccc1OC(=O)/C=C/c1ccco1 | active: 5.17 µM | –

Another view of some results above.

| SMILES | Potency | re-replication activation |
| --- | --- | --- |
| O=C(N/N=C/C(Br)=C/c1ccccc1)c1ccccc1F | inconclusive: 16.4 µM [activator, single point] | – |
| c1cncc(-c2nc(-c3ccc4c(c3)OCO4)cs2)c1 | inconclusive: 29.1 µM [activator, single point] | – |
| CCCCC(=O)OC1CCC2C3CCc4cc(O)ccc4C3CCC12C (stereo unspecified) | inconclusive: 0.259 µM [activator, partial curve, poor fit] | – |
| O=C(CNC(=O)c1cccc(F)c1)N/N=C/c1cc(Br)ccc1OC(=O)/C=C/c1ccco1 | active: 5.17 µM | – |

More entries

SMILES | Potency | re-replication activation
COc1ccc(-n2nnnc2SCC(=O)N2CCCC2=O)cc1 | inconclusive: 3.66 µM [activator, single point] | –
COc1ccc(NC(=O)c2cn3c(nc4ccccc43)c(C#N)c2C)cc1 | inconclusive: 10.3 µM [activator, partial curve, poor fit] | –
COc1ccc(CCNC(=O)Cn2ccc3c(OC)cccc3c2=O)cc1OC | – | inactive: -2.6%
O=C(Nc1ccc(OC(F)(F)F)cc1)C1CCCN(S(=O)(=O)c2cccnc2)C1 (stereo unspecified) | – | inactive: 11.9%
CCOC(=O)CNC(=O)Nc1nnc(-c2ccc(OCC)cc2)o1 | – | inactive: -5.13%
CC(C)(C)c1ccc(C2=NC(=O)C(CC(=O)O)S2)cc1 (stereo unspecified) | – | inactive: 13.4%
COc1cc(CNC(C)c2ccccc2)cc(Br)c1OCc1ccccc1 (stereo unspecified) | active: 23.1 µM | –
O=C(C/C=N\OCc1ccc([N+](=O)[O-])cc1)Nc1ccc(Br)cc1 | inconclusive: 29.1 µM [activator, single point] | –
CCN(CC)CCn1c(/N=C/c2ccc(OC)c(OC)c2)nc2ccccc21 | inconclusive: 0.092 µM [activator, full curve, poor fit] | –
CCCC(c1nnnn1Cc1ccc2c(c1)OCO2)N1CCC(C(N)=O)CC1 (stereo unspecified) | inconclusive: 29.1 µM [activator, single point] | –
N#CCSc1nnc(COc2ccccc2)n1-c1ccccc1 | – | inactive: -0.904%
CCN1CCN(CCCNC(=O)c2ccc(/C=C3/Oc4ccccc4N(Cc4cccc(C)c4)C3=O)cc2)CC1 | active: 2.59 µM | –
O=C(CCCC(=O)c1ccc(O)cc1)c1ccc(O)cc1 | inconclusive: 6.51 µM [activator, partial curve, poor fit] | –
COc1ccc(CCNC(=O)c2cnc3ccccc3n2)cc1 | – | inactive: -6.15%
CCC(=O)N1N=C(c2ccc(C)o2)CC1c1ccc(N(C)C)cc1 (stereo unspecified) | inconclusive: 0.1 µM [activator, partial curve, poor fit] | –
CNc1nc(N)c([N+](=O)[O-])c(Nc2cccc(F)c2)n1 | active: 18.4 µM | –
CCC1(CC)C(=O)NC(=O)NC1=Nc1ccccc1 | inconclusive: 2.59 µM [activator, full curve, poor fit] | –
COc1cc(OC)cc(-c2c(-c3cccs3)c3cc(-c4ccc(C(N)=O)cc4)ccc3n2C)c1 | inconclusive: 18.4 µM [activator, single point] | –
C=CCn1c(SCC(=O)N(C)C2CCS(=O)(=O)C2)nnc1-c1ccncc1 (stereo unspecified) | – | inactive: -9.65%
Cc1ccc(/C=C2/NC(=O)N(Cc3ccc(Br)cc3)C2=O)o1 | inconclusive: 20.6 µM [activator, single point] | –
Cc1cc(C)c2ccc(/C=N/O)nc2c1O | inconclusive: 29.1 µM [activator, single point] | –
Cc1ccc2c(c1)-c1cc(C)nn1C(c1sccc1C)N2 (stereo unspecified) | inconclusive: 20.6 µM [activator, single point] | –
Cc1ccc(S(=O)(=O)N2CCN(C(=O)CCn3cncn3)CC2)cc1C | – | inconclusive: 36.8% [activator]
COc1ccc(N(CC(=O)Nc2ccccc2OC)S(=O)(=O)c2ccc(NC(C)=O)cc2)cc1 | active: 18.4 µM | –

SMILES | Potency | re-replication activation
COc1cccc(CC2(CO)CCCN(Cc3cnn(-c4ccccc4)c3)C2)c1 (stereo unspecified) | inconclusive: 6.51 µM [activator, single point] | –
CCn1c2ccccc2c2cc(NC(=O)CSc3nnc(-c4ccc(OC)c(OC)c4)n3N)ccc21 | – | inactive: -18.3%
O=C1NC(=NCc2ccccc2)S/C1=C/c1ccc(O)cc1 | inconclusive: 29.1 µM [activator, single point] | –
Cc1csc2c(N3CCCCC3)ncnc12 | inconclusive: 11.6 µM [activator, partial curve, poor fit] | –
Cc1cccc(C(=O)NC(C(=O)Nc2ccc(S(=O)(=O)Nc3nccs3)cc2)C(C)C)c1 (stereo unspecified) | – | inactive: -4.45%
CCc1nn(CCCC(=O)NCc2ccccc2Br)c(=O)c2cc3occc3n12 | inconclusive: 14.6 µM [activator, single point] | –
O=C1/C(=C/c2ccccn2)COc2ccccc21 | inconclusive: 29.1 µM [activator, single point] | –
O=C(NCC(c1ccco1)N1CCCC1)c1ccc(Cl)c(S(=O)(=O)N2CCc3ccccc32)c1 (stereo unspecified) | inconclusive: 29.1 µM [activator, single point] | –
Cc1ccc(N2CC(NC(=O)C(=O)c3c(C)[nH]c4ccccc34)CC2=O)cc1C (stereo unspecified) | inconclusive: 18.4 µM [activator, single point] | –
COc1ccc(OC)c(/C=N/NC(=O)Cc2nc3ccccc3[nH]2)c1 | inconclusive: 20.6 µM [activator, partial curve, poor fit] | –
O=C(N/C(=C\c1ccccc1)C(=O)N1CCCCC1)c1ccco1 | – | inactive: -3.05%
CC(Sc1nc2ccccc2c(=O)n1CC1CCCO1)C(=O)N(C)Cc1ccccc1 (stereo unspecified) | – | inactive: -8.18%
Cc1ccc(NC(=O)N2CCCN(Cc3ccc(F)cc3)C2)cc1C | inconclusive: 29.1 µM [activator, single point] | –
COc1nc(N(C)C)nc(N(C#N)CCOC(C)=O)n1 | inconclusive: 10.3 µM [activator, partial curve] | –
Cc1cc(NC(=O)c2ccc(S(=O)(=O)N(C)CC3CCCO3)cc2)no1 (stereo unspecified) | – | inactive: 2.01%
COc1ccc(/C=C2\CCc3ccccc3C2=O)cc1Cn1cccn1 | inconclusive: 29.1 µM [activator, single point] | –
O=C(Nc1ccc(Cc2ccncc2)cc1)c1ccc(S(=O)(=O)N2CCOCC2)cc1 | – | inactive: -6.54%
COC(=O)c1cc(S(=O)(=O)N2CCN(Cc3ccccc3)CC2)cn1C | – | inactive: -15%
CCc1ccc(S(=O)(=O)Nc2ccc(Cl)cn2)cc1 | inconclusive: 6.51 µM [activator, partial curve, poor fit] | –
C1=C(CCNc2ncnc3c2cnn3-c2ccccc2)CCCC1 | inconclusive: 29.1 µM [activator, single point] | –
CN(O)/C=C1\C(=O)Nc2ccccc21 | – | inactive: 10.8%
O=C(CCC(=O)N/N=C/c1ccccc1O)NCc1ccccc1 | inconclusive: 29.1 µM [activator, single point] | –
CCc1nc(NCCC(C)C)c2nnn(Cc3ccccc3)c2n1 | – | inactive: -6.6%
